Reference: PMC10598014
No constants are given. Whether binding was seen depends on the method and setting. Binding seen in cells or lysates may run through a third protein. Some entries that bind do so weakly or less than the wild type.

The chains behind the UniProt entries cited, without tags or fusion partners.
UniProt Q9BWT3: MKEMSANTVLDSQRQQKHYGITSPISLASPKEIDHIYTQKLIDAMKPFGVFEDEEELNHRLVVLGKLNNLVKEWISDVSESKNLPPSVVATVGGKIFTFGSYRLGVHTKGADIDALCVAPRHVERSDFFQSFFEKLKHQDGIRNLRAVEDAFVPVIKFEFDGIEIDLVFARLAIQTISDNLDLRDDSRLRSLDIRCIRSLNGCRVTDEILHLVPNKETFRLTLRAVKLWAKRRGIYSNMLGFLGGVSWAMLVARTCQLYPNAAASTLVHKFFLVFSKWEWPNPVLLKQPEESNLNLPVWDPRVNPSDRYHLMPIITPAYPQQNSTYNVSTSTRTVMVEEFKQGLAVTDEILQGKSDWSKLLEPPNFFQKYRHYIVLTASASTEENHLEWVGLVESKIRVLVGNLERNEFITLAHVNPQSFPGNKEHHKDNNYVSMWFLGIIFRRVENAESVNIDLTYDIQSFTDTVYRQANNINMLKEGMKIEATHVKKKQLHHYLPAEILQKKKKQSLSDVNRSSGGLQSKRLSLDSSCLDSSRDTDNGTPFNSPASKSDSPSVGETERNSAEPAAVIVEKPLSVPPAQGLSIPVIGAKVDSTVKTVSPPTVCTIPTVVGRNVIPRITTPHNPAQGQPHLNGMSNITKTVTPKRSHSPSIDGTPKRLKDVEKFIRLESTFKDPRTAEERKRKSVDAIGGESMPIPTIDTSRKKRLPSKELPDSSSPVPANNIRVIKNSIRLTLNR
UniProt Q16630: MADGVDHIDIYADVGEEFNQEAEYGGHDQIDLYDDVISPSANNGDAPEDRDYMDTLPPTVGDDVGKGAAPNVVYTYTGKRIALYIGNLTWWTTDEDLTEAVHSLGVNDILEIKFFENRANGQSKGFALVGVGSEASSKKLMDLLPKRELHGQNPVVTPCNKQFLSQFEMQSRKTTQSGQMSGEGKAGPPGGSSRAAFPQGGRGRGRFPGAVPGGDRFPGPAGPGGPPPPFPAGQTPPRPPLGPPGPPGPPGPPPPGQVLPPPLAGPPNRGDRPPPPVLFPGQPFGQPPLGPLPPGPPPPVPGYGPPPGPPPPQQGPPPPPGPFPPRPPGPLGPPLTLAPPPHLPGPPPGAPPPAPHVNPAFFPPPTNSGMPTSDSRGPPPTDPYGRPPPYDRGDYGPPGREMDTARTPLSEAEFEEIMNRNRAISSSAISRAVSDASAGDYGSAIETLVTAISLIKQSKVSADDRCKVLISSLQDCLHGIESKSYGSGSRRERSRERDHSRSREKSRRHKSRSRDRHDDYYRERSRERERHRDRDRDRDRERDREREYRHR

T1: ZFC3H1 (human (endogenous in HeLa)), O60293
T1 chain: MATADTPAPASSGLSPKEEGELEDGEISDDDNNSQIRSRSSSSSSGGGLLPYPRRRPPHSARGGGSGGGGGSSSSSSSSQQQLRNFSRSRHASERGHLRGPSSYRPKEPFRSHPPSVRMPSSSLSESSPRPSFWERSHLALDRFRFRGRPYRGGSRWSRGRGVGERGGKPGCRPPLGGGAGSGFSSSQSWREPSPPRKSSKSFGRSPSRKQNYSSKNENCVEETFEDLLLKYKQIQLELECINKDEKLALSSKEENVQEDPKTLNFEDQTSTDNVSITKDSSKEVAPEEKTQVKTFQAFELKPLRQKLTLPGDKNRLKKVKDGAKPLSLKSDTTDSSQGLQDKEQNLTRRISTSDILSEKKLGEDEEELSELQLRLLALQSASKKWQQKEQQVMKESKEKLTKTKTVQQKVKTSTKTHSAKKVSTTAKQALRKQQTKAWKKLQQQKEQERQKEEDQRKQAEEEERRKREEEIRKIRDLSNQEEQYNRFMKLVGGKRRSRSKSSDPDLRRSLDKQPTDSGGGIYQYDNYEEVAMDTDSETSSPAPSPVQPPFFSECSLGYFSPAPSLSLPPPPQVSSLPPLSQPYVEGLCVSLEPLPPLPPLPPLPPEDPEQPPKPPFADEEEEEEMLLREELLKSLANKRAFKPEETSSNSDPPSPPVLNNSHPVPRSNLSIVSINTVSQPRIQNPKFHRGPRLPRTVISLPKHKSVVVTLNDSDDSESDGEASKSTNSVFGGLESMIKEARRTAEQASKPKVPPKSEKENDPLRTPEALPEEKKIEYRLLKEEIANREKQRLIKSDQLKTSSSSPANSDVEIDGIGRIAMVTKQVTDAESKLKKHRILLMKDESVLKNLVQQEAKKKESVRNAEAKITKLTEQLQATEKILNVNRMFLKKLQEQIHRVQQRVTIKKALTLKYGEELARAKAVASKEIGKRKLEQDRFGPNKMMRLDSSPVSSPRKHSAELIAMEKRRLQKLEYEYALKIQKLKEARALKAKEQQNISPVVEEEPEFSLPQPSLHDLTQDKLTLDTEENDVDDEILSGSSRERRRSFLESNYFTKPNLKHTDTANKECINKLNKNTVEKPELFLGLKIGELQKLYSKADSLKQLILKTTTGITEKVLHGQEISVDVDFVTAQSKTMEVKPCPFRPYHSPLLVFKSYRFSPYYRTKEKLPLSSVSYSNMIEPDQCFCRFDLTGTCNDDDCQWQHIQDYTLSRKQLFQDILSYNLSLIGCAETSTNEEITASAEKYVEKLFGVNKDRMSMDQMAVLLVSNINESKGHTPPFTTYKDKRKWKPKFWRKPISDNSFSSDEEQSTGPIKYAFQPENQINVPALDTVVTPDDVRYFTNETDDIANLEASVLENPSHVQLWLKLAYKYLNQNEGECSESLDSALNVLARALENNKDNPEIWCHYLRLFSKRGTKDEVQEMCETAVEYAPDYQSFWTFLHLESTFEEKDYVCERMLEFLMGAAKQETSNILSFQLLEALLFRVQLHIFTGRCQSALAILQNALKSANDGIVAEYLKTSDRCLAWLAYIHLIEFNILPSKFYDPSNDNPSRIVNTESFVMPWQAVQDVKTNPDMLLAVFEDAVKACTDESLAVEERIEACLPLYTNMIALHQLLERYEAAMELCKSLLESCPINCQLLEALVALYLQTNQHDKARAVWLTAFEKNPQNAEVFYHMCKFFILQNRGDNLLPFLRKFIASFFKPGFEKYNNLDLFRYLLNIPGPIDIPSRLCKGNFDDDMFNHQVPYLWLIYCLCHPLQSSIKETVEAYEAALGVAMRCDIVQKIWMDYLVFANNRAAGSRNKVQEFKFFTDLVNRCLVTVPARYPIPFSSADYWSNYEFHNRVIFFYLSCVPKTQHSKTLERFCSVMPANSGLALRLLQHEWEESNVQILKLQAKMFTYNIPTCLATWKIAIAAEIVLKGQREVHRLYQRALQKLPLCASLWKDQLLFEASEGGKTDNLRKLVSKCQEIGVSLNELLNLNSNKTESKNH


Assays:
[1] = biological target: ZFC3H1 (human (endogenous in HeLa)) (UniProt O60293); experiment: co-IP; endogenous proteins; HeLa nuclear extracts treated with micrococcal nuclease; 50 mM tris pH 7.6, 150 mM NaCl, 1% NP-40; 2 μg antibody overnight at 4 °C, Protein A Dynabeads; IgG control; immunoblot
[2] = biological target: ZFC3H1 (human (endogenous in HeLa)) (UniProt O60293); experiment: co-IP; as the co-IP from HeLa nuclear extracts, immunoprecipitates incubated with RNAse A/T cocktail (1.2 μL/mL of immunoprecipitation buffer) for 30 min at RT, followed by 5 washes
[3] = biological target: polyA polymerase gamma (PAPγ) (human (endogenous in HEK-293T and HeLa)) (UniProt Q9BWT3); experiment: as above
[4] = biological target: polyA polymerase gamma (PAPγ) (human (endogenous in HEK-293T and HeLa)) (UniProt Q9BWT3); experiment: co-IP; endogenous proteins; HeLa nuclear extracts treated with micrococcal nuclease; 50 mM tris pH 7.6, 150 mM NaCl, 1% NP-40; 2 μg antibody overnight at 4 °C, Protein A Dynabeads; IgG control; immunoblot
[5] = biological target: T1, ZFC3H1 (human (endogenous in HeLa)), …; experiment: as above; settings: remark: other sources report otherwise

Row | Molecule | binding [1] | binding [2] | binding [4] | further results
1 | CPSF6 (from UniProt Q16630 1-551) | binds |  |  | 
2 | RBM27 (protein, UniProt Q9P2N5 1-1060) MLIEDVDALKSWLAKLLEPICDADPSALANYVVALVKKDKPEKELKAFCADQLDVFLQKETSGFVDKLFESLYTKNYLPLLEPVKPEPKPLVQEKEEIKEEVFQEPAEEERDGRKKKYPSPQKTRSESSERRTREKKREDGKWRDYDRYYERNELYREKYDWRRGRSKSRSKSRGLSRSRSRSRGRSKDRDPNRNVEHRERSKFKSERNDLESSYVPVSAPPPNSSEQYSSGAQSIPSTVTVIAPAHHSENTTESWSNYYNNHSSSNSFGRNLPPKRRCRDYDERGFCVLGDLCQFDHGNDPLVVDEVALPSMIPFPPPPPGLPPPPPPGMLMPPMPGPGPGPGPGPGPGPGPGPGPGHSMRLPVPQGHGQPPPSVVLPIPRPPITQSSLINSRDQPGTSAVPNLASVGTRLPPPLPQNLLYTVSERQPMYSREHGAAASERLQLGTPPPLLAARLVPPRNLMGSSIGYHTSVSSPTPLVPDTYEPDGYNPEAPSITSSGRSQYRQFFSRTQTQRPNLIGLTSGDMDVNPRAANIVIQTEPPVPVSINSNITRVVLEPDSRKRAMSGLEGPLTKKPWLGKQGNNNQNKPGFLRKNQYTNTKLEVKKIPQELNNITKLNEHFSKFGTIVNIQVAFKGDPEAALIQYLTNEEARKAISSTEAVLNNRFIRVLWHRENNEQPTLQSSAQLLLQQQQTLSHLSQQHHHLPQHLHQQQVLVAQSAPSTVHGGIQKMMSKPQTSGAYVLNKVPVKHRLGHAGGNQSDASHLLNQSGGAGEDCQIFSTPGHPKMIYSSSNLKTPSKLCSGSKSHDVQEVLKKKQEAMKLQQDMRKKRQEVLEKQIECQKMLISKLEKNKNMKPEERANIMKTLKELGEKISQLKDELKTSSAVSTPSKVKTKTEAQKELLDTELDLHKRLSSGEDTTELRKKLSQLQVEAARLGILPVGRGKTMSSQGRGRGRGRGGRGRGSLNHMVVDHRPKALTVGGFIEEEKEDLLQHFSTANQGPKFKDRRLQISWHKPKVPSISTETEEEEVKEEETETSDLFLPDDDDEDEDEYESRSWRR | binds | binds | binds | binding [3]: binds
3 | PABPN1, Q86U42 1-306 (protein) MAAAAAAAAAAGAAGGRGSGPGRRRHLVPGAGGEAGEGAPGGAGDYGNGLESEELEPEELLLEPEPEPEPEEEPPRPRAPPGAPGPGPGSGAPGSQEEEEEPGLVEGDPGDGAIEDPELEAIKARVREMEEEAEKLKELQNEVEKQMNMSPPPGNAGPVIMSIEEKMEADARSIYVGNVDYGATAEELEAHFHGCGSVNRVTILCDKFSGHPKGFAYIEFSDKESVRTSLALDESLFRGRQIKVIPKRTNRPGISTTDRGFPRARYRARTTNYNSSRSRFYSGFNSRPRGRVYRGRARATSWYSPY |  |  |  | binding [5]: binds

The next lines start with results.

Row | binding [1] | binding [2] | binding [4] | Molecule | further results
4 | binds | binds |  | polyA polymerase gamma (PAPγ) (from UniProt Q9BWT3 1-736) (enzyme) | 
5 | binds |  |  | ZC3H14 (protein, UniProt Q6PJT7 1-736) MEIGTEISRKIRSAIKGKLQELGAYVDEELPDYIMVMVANKKSQDQMTEDLSLFLGNNTIRFTVWLHGVLDKLRSVTTEPSSLKSSDTNIFDSNVPSNKSNFSRGDERRHEAAVPPLAIPSARPEKRDSRVSTSSQESKTTNVRQTYDDGAATRLMSTVKPLREPAPSEDVIDIKPEPDDLIDEDLNFVQENPLSQKKPTVTLTYGSSRPSIEIYRPPASRNADSGVHLNRLQFQQQQNSIHAAKQLDMQSSWVYETGRLCEPEVLNSLEETYSPFFRNNSEKMSMEDENFRKRKLPVVSSVVKVKKFNHDGEEEEEDDDYGSRTGSISSSVSVPAKPERRPSLPPSKQANKNLILKAISEAQESVTKTTNYSTVPQKQTLPVAPRTRTSQEELLAEVVQGQSRTPRISPPIKEEETKGDSVEKNQGTQQRQLLSRLQIDPVMAETLQMSQDYYDMESMVHADTRSFILKKPKLSEEVVVAPNQESGMKTADSLRVLSGHLMQTRDLVQPDKPASPKFIVTLDGVPSPPGYMSDQEEDMCFEGMKPVNQTAASNKGLRGLLHPQQLHLLSRQLEDPNGSFSNAEMSELSVAQKPEKLLERCKYWPACKNGDECAYHHPISPCKAFPNCKFAEKCLFVHPNCKYDAKCTKPDCPFTHVSRRIPVLSPKPAVAPPAPPSSSQLCRYFPACKKMECPFYHPKHCRFNTQCTRPDCTFYHPTINVPPRHALKWIRPQTSE | 
6 |  |  | binds | YTHDC2 (protein, UniProt Q9H6S0 1-1430) MSRPSSVSPRQPAPGGGGGGGPSPCGPGGGGRAKGLKDIRIDEEVKIAVNIALERFRYGDQREMEFPSSLTSTERAFIHRLSQSLGLVSKSKGKGANRYLTVKKKDGSETAHAMMTCNLTHNTKHAVRSLIQRFPVTNKERTELLPKTERGNVFAVEAENREMSKTSGRLNNGIPQIPVKRGESEFDSFRQSLPVFEKQEEIVKIIKENKVVLIVGETGSGKTTQIPQFLLDDCFKNGIPCRIFCTQPRRLAAIAVAERVAAERRERIGQTIGYQIRLESRVSPKTLLTFCTNGVLLRTLMAGDSTLSTVTHVIVDEVHERDRFSDFLLTKLRDLLQKHPTLKLILSSAALDVNLFIRYFGSCPVIYIQGRPFEVKEMFLEDILRTTGYTNKEMLKYKKEKQQEEKQQTTLTEWYSAQENSFKPESQRQRTVLNVTDEYDLLDDGGDAVFSQLTEKDVNCLEPWLIKEMDACLSDIWLHKDIDAFAQVFHLILTENVSVDYRHSETSATALMVAAGRGFASQVEQLISMGANVHSKASNGWMALDWAKHFGQTEIVDLLESYSATLEFGNLDESSLVQTNGSDLSAEDRELLKAYHHSFDDEKVDLDLIMHLLYNICHSCDAGAVLIFLPGYDEIVGLRDRILFDDKRFADSTHRYQVFMLHSNMQTSDQKKVLKNPPAGVRKIILSTNIAETSITVNDVVFVIDSGKVKEKSFDALNFVTMLKMVWISKASAIQRKGRAGRCRPGICFRLFSRLRFQNMLEFQTPELLRMPLQELCLHTKLLAPVNCPIADFLMKAPEPPPALIVRNAVQMLKTIDAMDTWEDLTELGYHLADLPVEPHLGKMVLCAVVLKCLDPILTIACTLAYRDPFVLPTQASQKRAAMLCRKRFTAGAFSDHMALLRAFQAWQKARSDGWERAFCEKNFLSQATMEIIIGMRTQLLGQLRASGFVRARGGGDIRDVNTNSENWAVVKAALVAGMYPNLVHVDRENLVLTGPKEKKVRFHPASVLSQPQYKKIPPANGQAAAIKALPTDWLIYDEMTRAHRIANIRCCSAVTPVTILVFCGPARLASNALQEPSSFRVDGIPNDSSDSEMEDKTTANLAALKLDEWLHFTLEPEAASLLLQLRQKWHSLFLRRMRAPSKPWSQVDEATIRAIIAVLSTEEQSAGLQQPSGIGQRPRPMSSEELPLASSWRSNNSRKSSADTEFSDECTTAERVLMKSPSPALHPPQKYKDRGILHPKRGTEDRSDQSSLKSTDSSSYPSPCASPSPPSSGKGSKSPSPRPNMPVRYFIMKSSNLRNLEISQQKGIWSTTPSNERKLNRAFWESSIVYLVFSVQGSGHFQGFSRMSSEIGREKSQDWGSAGLGGVFKVEWIRKESLPFQFAHHLLNPWNDNKKVQISRDGQELEPLVGEQLLQLWERLPLGEKNTTD | 
